Binding data for 1 molecule are collected here from US20240158517A1.

Chains of the proteins cited; added tags and fusions are not shown.
UniProt P32302: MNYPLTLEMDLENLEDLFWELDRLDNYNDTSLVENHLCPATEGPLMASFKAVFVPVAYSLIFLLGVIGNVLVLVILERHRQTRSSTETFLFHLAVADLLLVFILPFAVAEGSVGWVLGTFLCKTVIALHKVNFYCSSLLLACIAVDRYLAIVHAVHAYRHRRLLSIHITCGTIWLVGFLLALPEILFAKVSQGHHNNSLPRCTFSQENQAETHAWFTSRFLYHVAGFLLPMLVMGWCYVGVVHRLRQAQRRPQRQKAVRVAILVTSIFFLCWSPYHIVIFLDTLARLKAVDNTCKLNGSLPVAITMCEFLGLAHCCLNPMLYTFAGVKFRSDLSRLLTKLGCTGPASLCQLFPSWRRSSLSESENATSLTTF

These are yes or no findings as the source states them, for the method shown. Some results given as binding are weak or reduced against the parent protein; the word gives no strength.

For this test, the target named is human CXCR5 (human) (UniProt P32302). As to the kind of experiment: binding to DX002 cells expressing CXCR5.

B1: afucosylated HFB2-4hG1 (antibody, V domains shown)
VH: QVQLKESGPGLVAPSQSLSITCTVSGFSLTSYGVSWVRQPPGKGLEWLGVIWGDGSTNYHSGLISRLSISKDNSKSQVFLKLNSLQSDDTATYYCARVVYWGQGTLVTVSA
VL: DIVMTQAAPSVPVTPGESISISCRSSKSLLHSNGKTYLYWFLQRPGQSPQLLLYRMSNLASGVPDRFSGSGSGTAFTLRISRVEAEDVGVYYCMQHLEYPYTFGGGTKLEIK
modifications: afucosylated (no core fucose on the Fc N-glycan of the heavy chain)
Consider B1, for which the binding entry is “binds”.
